From PubChem BioAssay AID2599 (Sanford-Burnham Center for Chemical Genomics, 2010)
The list shows a part of the results, in another mix than the full data. The source made the active and inactive calls.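 Rule for the calls: active = inhibition above about 50% at the single tested dose (limit read from the data); inactive = the rest.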

Sequences of proteins named here, by UniProt entry; tags and fusion partners are left off. A change or cut given only in a name is not applied to a line headed by its entry.
UniProt Q9GZR1: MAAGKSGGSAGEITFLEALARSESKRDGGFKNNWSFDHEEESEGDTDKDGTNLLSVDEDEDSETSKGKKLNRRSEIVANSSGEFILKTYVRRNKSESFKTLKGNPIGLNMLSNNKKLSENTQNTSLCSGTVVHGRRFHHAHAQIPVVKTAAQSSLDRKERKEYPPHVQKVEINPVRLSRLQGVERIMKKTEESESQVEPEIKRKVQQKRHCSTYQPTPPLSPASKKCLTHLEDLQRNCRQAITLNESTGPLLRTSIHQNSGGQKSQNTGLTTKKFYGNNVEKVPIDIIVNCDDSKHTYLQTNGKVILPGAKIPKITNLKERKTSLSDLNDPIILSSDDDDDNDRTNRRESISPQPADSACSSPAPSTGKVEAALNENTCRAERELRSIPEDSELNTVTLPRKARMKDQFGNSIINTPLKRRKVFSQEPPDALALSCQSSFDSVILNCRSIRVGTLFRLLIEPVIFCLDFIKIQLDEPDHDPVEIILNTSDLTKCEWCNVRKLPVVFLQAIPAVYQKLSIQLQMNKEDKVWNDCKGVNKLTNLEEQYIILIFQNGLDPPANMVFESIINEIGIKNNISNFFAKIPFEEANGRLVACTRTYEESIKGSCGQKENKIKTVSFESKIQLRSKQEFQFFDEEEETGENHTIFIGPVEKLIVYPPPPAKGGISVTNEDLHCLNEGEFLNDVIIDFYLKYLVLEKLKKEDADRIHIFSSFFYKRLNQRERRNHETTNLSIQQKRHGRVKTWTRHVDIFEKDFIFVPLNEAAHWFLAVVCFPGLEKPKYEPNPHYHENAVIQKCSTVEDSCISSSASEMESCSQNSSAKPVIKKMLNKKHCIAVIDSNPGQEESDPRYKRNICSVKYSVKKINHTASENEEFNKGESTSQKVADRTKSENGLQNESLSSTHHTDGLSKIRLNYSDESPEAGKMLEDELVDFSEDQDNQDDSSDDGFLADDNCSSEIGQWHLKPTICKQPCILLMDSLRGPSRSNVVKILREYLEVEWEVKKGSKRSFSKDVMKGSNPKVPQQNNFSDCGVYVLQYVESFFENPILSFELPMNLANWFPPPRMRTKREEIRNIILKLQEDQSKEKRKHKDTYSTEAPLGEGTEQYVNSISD

target: Sentrin-specific protease 6 (Homo sapiens) (UniProt Q9GZR1); assay: SENP6 protease inhibitors, primary screen, biochemical, luminescence, uHTS (AID 2599); details: Recombinant SENP6 catalytic domain, aminoluciferin luminescence; at 10 µM; hits give high values;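 note: plate controls were DMSO wells with enzyme for no effect and DMSO wells lacking enzyme for full effect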

Row | SMILES | inhibition
1 | Cc1cc(=O)oc2cc(OCc3ccccc3)ccc12 | active: 56.5%
